No constants are given. Whether binding was seen depends on the method and setting. Binding seen in cells or lysates may run through a third protein. Some entries that bind do so weakly or less than the wild type.
T1: Ubiquitin-specific peptidase 49 (USP49) (UniProt Q70CQ1)
T1 sequence: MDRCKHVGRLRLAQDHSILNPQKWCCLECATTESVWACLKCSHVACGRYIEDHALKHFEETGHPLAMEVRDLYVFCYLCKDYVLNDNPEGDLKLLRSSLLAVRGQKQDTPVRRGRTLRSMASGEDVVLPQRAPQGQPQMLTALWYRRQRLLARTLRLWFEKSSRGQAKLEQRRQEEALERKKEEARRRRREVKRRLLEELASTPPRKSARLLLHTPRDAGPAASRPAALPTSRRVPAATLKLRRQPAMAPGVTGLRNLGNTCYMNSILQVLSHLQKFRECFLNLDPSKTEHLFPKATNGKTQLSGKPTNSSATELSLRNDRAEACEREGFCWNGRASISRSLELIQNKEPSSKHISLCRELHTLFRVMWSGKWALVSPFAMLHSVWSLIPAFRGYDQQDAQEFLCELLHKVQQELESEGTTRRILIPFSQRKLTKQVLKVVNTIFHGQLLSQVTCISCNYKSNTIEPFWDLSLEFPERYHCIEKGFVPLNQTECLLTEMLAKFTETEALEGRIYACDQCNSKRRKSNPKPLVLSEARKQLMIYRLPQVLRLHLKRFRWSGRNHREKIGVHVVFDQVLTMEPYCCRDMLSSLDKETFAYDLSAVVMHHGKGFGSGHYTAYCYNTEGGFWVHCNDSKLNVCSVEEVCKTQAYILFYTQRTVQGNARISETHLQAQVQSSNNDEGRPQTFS

By UniProt entry, the sequences of proteins in these tests, tags left out.
UniProt Q9HC98: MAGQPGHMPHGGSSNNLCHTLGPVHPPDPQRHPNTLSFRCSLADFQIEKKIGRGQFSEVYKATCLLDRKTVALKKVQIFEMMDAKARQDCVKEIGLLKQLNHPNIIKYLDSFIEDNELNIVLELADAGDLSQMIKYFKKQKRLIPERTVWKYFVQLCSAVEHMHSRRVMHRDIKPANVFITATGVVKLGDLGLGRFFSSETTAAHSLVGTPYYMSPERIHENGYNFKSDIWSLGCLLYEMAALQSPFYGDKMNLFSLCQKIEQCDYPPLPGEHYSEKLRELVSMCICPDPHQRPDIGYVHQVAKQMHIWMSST

T2: USP49 del (UniProt Q70CQ1)
T2 sequence: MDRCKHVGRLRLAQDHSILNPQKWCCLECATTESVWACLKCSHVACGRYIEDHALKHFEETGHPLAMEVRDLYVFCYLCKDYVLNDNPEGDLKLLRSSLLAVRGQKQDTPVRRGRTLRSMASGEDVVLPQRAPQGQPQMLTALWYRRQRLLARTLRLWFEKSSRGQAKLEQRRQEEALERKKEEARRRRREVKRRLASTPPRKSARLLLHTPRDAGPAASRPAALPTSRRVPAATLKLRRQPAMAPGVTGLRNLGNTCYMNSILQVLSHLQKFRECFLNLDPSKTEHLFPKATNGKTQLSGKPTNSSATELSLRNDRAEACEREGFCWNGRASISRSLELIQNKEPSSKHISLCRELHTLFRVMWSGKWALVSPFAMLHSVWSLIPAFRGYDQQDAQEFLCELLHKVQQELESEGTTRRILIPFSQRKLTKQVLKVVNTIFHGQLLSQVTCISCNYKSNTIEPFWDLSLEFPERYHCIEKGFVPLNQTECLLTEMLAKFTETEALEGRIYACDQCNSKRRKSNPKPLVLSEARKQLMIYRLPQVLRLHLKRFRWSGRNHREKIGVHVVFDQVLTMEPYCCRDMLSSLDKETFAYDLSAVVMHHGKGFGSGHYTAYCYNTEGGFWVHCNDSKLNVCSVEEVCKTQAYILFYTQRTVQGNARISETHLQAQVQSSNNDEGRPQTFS

B1: Fbxo45 (protein, UniProt P0C2W1 1-286)
chain: MAAPAPGAGAASGGAGCSGGGAGAGAGSGSGAAGAGGRLPSRVLELVFSYLELSELRSCALVCKHWYRCLHGDENSEVWRSLCARSLAEEALRTDILCNLPSYKAKIRAFQHAFSTNDCSRNVYIKKNGFTLHRNPIAQSTDGARTKIGFSEGRHAWEVWWEGPLGTVAVIGIATKRAPMQCQGYVALLGSDDQSWGWNLVDNNLLHNGEVNGSFPQCNNAPKYQIGERIRVILDMEDKTLAFERGYEFLGVAFRGLPKVCLYPAVSAVYGNTEVTLVYLGKPLDG
B2: NEK3 (enzyme, UniProt P51956 1-506)
chain: MDDYMVLRMIGEGSFGRALLVQHESSNQMFAMKEIRLPKSFSNTQNSRKEAVLLAKMKHPNIVAFKESFEAEGHLYIVMEYCDGGDLMQKIKQQKGKLFPEDMILNWFTQMCLGVNHIHKKRVLHRDIKSKNIFLTQNGKVKLGDFGSARLLSNPMAFACTYVGTPYYVPPEIWENLPYNNKSDIWSLGCILYELCTLKHPFQANSWKNLILKVCQGCISPLPSHYSYELQFLVKQMFKRNPSHRPSATTLLSRGIVARLVQKCLPPEIIMEYGEEVLEEIKNSKHNTPRKKTNPSRIRIALGNEASTVQEEEQDRKGSHTDLESINENLVESALRRVNREEKGNKSVHLRKASSPNLHRRQWEKNVPNTALTALENASILTSSLTAEDDRGGSVIKYSKNTTRKQWLKETPDTLLNILKNADLSLAFQTYTIYRPGSEGFLKGPLSEETEASDSVDGGHDSVILDPERLEPGLDEEDTDFEEEDDNPDWVSELKKRAGWQGLCDR

Key:
[1] = molecular target: T1, Ubiquitin-specific peptidase 49 (USP49); assay: co-IP; Supplementary Fig. 4B; cells and tags not stated; the sentence does not name the method, the paper's only binding method is IP with HA/Flag tag magnetic beads from NP40 lysate
USP49 del = molecular target: T2, USP49 del; assay: co-IP; Panc-1 and 293 T cells transfected with the indicated plasmids, 10 μM MG132 for 6 h before harvesting; NP40 lysate, 1-2 mg protein, HA/Flag tag magnetic beads, washed five times with TBST; immunoblot
[2] = molecular target: T1, Ubiquitin-specific peptidase 49 (USP49); assay: as above

| Molecule | binding [1] | binding (USP49 del) | binding [2] |
| --- | --- | --- | --- |
| NEK6 (from UniProt Q9HC98 1-313) (enzyme) | binds |  |  |
| B1 |  | binds | binds |
| B2 | no binding |  |  |
